According to patent publication US20230257458A1:
Results are given in words; binding and its absence hold for the method and conditions named. Some results given as binding are weak or reduced against the parent protein; the word gives no strength.

Sequences of proteins named here, by UniProt entry; tags and fusion partners are left off. Residues count along the entry.
UniProt P20809, residues 22-199: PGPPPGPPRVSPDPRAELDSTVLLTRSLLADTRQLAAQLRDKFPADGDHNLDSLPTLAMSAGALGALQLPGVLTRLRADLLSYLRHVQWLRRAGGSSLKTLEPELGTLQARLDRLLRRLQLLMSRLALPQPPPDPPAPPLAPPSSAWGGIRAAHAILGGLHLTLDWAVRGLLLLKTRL

Molecular target: recombinant IL-11 (LSBio, LS-G132887-10) (UniProt P20809)
Experiment: ELISA, cytokine coated

binding: binds
B1: 3-6A4 (antibody, human IgG1, kappa, V domains shown)
VH: QIQLVQSGPELKKPGETVKISCKASGYTFTTNGINWVKQAAGKGLKWMGWINTNTGEPTNAEELKGRFAFSLETSASTAYLQINNLKNEDAAIYFCAREGAFGLDYWGQGTSVTVSS
VL: SIVMTQSPKFLLVSAGDRVIITCKASQSVSNDVVWYQQKPGQSPKLLIYYGSHRNTGVPTRFTGSGYGTDFTFTISTVQAEDLAVYFCQQDFFSPWTFGGGTKLEIKR
